Compound in this assay: CN[C@@H]1C[C@H]2O[C@@](C)([C@@H]1OC)n1c3ccccc3c3c4c(c5c6ccccc6n2c5c31)C(=O)NC4 [staurosporine]
The assay is described as follows: log2 fold change of tryptic peptide abundance, ligand vs vehicle (limited proteolysis) (log2 ratio); higher = more trypsin-susceptible (destabilized). Conditions: ligand concentration: 20 uM; sample: mouse liver crude lysate; replicate design: treated separately.

The chains behind the UniProt entries cited, without tags or fusion partners. Where a name states a change or a piece, a line headed by the entry shows the natural chain unless it says otherwise.
UniProt O35215: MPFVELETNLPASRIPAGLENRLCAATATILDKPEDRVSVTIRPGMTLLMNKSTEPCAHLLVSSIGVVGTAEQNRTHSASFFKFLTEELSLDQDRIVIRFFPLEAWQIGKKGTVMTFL
UniProt E9Q634: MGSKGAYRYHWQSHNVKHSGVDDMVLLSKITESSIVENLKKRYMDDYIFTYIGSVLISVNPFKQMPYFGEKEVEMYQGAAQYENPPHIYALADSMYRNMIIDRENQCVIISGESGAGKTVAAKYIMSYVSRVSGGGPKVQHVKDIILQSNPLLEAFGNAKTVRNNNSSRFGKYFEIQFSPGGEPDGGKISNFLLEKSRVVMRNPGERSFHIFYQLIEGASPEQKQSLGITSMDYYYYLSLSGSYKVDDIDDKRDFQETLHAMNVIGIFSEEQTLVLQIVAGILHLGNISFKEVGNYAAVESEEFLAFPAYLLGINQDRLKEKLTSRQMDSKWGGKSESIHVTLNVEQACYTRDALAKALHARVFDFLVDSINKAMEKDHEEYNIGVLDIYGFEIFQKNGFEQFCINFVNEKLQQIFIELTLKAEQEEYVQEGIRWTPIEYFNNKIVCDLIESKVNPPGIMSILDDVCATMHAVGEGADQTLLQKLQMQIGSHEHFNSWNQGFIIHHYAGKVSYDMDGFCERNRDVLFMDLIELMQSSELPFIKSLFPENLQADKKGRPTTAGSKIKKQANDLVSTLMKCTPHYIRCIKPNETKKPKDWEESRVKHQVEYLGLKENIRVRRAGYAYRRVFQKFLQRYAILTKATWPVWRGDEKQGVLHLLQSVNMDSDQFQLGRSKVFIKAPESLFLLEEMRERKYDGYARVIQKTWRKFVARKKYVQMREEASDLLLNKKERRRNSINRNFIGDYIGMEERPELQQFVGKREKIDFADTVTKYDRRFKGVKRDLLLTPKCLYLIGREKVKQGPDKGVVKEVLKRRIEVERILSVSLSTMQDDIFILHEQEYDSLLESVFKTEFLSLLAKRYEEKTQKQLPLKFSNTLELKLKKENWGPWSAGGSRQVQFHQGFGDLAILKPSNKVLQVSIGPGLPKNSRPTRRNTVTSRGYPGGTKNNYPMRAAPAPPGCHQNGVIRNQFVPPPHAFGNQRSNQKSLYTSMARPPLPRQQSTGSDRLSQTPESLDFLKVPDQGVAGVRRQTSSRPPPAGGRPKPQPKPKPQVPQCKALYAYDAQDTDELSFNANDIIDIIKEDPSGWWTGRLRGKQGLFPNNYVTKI
UniProt O09158: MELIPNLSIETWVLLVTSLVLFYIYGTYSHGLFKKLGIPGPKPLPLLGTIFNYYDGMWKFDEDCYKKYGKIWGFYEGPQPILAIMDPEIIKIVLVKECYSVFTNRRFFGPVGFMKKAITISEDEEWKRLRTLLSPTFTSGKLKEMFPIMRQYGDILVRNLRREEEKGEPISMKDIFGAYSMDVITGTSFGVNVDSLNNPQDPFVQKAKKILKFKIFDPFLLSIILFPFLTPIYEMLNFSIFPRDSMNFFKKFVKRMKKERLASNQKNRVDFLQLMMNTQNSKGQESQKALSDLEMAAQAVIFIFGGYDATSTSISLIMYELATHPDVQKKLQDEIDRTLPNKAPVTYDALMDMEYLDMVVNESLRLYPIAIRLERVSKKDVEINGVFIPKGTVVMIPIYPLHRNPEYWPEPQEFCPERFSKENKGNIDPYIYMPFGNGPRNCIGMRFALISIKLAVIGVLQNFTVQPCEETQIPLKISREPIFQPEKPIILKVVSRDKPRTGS
UniProt O35445: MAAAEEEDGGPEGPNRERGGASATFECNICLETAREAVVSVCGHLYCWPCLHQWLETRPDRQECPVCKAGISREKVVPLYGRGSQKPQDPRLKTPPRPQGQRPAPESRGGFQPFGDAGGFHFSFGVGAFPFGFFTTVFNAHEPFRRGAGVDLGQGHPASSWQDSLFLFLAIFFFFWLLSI
UniProt O08576: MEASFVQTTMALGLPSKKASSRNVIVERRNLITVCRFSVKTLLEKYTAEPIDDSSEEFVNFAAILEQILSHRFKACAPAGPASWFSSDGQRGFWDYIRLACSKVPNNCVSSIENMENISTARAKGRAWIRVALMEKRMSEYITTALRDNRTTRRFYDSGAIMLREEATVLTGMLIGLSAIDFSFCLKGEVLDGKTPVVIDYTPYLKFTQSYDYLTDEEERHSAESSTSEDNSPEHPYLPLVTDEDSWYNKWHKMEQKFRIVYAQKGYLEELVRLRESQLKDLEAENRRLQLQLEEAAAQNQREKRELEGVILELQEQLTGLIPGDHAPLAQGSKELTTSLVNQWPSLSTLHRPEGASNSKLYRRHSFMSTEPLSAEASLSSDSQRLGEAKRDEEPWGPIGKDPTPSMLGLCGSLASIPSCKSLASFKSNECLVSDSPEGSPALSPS
UniProt E9Q137: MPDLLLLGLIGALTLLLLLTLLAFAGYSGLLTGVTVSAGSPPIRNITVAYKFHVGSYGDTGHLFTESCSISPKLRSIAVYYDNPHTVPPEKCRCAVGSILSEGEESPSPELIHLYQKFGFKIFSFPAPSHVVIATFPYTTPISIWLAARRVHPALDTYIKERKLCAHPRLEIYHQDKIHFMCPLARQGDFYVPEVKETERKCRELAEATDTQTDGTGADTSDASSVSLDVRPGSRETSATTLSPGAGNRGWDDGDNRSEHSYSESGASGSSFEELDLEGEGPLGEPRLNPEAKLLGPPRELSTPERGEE
UniProt B8ZXI1: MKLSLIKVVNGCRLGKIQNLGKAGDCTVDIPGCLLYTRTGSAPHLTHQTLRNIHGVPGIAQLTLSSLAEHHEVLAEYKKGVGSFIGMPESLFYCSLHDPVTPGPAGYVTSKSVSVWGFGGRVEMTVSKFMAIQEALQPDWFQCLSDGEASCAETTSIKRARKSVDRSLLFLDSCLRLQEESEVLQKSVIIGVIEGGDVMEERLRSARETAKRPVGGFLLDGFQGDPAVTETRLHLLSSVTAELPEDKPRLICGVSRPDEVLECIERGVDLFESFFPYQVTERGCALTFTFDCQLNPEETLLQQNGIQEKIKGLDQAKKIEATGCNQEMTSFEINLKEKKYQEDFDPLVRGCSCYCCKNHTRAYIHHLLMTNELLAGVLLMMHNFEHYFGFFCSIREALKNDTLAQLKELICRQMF
UniProt E9PYL2: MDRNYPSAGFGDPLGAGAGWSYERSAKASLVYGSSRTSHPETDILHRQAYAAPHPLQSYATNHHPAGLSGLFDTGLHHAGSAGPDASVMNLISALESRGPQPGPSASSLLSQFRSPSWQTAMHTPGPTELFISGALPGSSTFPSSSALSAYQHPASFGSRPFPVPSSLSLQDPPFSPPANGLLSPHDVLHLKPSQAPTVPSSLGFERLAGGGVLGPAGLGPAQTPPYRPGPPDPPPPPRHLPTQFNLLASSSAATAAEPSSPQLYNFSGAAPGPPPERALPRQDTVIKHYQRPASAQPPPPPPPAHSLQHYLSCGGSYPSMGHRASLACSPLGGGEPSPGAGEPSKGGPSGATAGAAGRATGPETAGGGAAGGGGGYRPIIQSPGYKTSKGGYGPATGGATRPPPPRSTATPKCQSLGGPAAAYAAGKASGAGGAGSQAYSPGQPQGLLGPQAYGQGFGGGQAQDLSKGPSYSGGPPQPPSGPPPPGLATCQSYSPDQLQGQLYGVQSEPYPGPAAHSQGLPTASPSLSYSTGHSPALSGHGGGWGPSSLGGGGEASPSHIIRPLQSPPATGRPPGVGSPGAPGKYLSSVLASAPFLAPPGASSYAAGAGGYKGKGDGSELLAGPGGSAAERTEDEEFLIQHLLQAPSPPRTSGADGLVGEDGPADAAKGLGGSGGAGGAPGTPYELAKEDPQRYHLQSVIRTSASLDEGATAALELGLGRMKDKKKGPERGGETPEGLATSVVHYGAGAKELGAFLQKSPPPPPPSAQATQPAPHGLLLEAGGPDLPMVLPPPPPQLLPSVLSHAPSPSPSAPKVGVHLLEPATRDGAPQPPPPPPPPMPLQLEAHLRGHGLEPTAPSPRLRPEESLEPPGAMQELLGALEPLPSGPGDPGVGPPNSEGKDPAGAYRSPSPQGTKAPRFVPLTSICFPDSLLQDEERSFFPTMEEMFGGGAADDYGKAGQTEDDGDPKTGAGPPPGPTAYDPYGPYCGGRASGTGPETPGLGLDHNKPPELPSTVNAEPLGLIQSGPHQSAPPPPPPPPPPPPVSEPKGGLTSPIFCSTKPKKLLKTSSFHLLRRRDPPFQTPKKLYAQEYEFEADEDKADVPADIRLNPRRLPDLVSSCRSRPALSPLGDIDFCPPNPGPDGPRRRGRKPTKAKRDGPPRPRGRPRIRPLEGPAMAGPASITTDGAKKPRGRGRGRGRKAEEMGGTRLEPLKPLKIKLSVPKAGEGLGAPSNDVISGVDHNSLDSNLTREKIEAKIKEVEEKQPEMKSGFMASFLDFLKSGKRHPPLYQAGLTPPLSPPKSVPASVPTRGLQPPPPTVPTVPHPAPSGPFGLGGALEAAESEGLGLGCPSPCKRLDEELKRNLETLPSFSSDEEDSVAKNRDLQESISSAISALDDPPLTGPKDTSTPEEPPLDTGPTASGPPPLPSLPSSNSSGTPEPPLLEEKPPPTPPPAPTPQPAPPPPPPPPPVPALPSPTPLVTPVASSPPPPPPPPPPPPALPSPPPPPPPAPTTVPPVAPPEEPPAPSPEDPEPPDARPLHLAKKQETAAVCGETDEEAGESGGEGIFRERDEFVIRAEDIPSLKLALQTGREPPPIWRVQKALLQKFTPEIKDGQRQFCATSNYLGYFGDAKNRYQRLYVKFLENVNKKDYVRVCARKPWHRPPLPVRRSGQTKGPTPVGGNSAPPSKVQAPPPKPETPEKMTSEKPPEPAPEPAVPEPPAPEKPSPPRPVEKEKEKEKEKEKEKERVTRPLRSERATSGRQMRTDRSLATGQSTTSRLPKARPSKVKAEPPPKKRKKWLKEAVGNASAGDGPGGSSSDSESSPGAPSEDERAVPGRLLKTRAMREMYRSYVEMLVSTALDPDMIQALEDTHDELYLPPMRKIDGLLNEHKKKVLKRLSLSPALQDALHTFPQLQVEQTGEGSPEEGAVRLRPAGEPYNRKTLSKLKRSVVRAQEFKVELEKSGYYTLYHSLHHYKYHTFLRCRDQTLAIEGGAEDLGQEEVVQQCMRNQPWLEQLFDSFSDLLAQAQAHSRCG
UniProt E9Q6P5: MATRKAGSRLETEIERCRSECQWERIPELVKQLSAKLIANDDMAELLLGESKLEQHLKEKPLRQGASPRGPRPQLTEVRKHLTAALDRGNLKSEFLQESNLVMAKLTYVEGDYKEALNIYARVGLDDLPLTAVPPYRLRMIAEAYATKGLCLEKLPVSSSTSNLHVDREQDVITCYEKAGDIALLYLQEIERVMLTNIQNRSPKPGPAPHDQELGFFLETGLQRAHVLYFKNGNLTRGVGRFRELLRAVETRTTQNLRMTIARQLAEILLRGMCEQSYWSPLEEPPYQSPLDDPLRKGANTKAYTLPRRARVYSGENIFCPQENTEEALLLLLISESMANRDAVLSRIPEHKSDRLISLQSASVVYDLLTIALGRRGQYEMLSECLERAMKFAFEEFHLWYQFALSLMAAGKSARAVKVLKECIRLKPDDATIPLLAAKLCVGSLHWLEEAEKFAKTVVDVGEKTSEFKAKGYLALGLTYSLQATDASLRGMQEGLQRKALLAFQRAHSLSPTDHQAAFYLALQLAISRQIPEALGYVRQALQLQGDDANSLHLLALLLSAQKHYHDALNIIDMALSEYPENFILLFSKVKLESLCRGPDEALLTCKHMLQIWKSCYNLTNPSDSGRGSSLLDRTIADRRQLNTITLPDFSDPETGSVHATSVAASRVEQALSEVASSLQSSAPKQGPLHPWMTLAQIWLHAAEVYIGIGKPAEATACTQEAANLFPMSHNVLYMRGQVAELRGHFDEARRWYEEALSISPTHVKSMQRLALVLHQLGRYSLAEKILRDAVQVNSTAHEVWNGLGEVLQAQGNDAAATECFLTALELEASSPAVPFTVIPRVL
UniProt O08580: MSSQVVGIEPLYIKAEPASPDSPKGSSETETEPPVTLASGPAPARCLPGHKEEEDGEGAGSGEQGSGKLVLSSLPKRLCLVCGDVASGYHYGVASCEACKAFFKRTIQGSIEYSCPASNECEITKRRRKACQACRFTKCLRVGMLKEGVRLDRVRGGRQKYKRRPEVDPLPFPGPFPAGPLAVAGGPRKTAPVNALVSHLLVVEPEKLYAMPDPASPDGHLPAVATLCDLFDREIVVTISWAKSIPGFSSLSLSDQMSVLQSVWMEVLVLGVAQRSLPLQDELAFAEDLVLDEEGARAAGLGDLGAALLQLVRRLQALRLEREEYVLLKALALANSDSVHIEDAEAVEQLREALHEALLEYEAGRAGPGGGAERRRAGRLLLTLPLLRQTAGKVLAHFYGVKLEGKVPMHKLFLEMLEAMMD

Some of the results follow. Most values lie at the level of the controls, where differences are scatter.

For the target “UniProt O35215 (peptide sequence: FFPLEAWQIGKK, peptide start residue: 100)”, the log2 fold change was -0.168.

As to “UniProt E9Q634 (peptide sequence: NQFVPPPHAFGNQR, peptide start residue: 968)”, the log2 fold change is -0.342.

For the target “UniProt O35231 (peptide sequence: VFEFGYNNR, peptide start residue: 623)”, the log2 fold change turned out to be 0.371.

Consider “UniProt O09158 (peptide sequence: NRVDFLQLMMNTQNSK, peptide start residue: 267)”, for which the log2 fold change came out at 0.27. Regarding “UniProt O35445 (peptide sequence: GSQKPQDPR, peptide start residue: 83)”, the log2 fold change is -0.0709. With “UniProt E9Q6B2 (peptide sequence: RLQQHLLEIR, peptide start residue: 63)” the figure was 0.231; with “UniProt O08810 (peptide sequence: GGGQIIPTAR, peptide start residue: 717)”, -0.311; with “UniProt B2RY56 (peptide sequence: CGLVLSWKR, peptide start residue: 110)”, 0.141. With “UniProt O09172 (peptide sequence: CPSTHSEELR, peptide start residue: 35)” the figure was 0.193. In the case of “UniProt B9EJ80 (peptide sequence: DLPSESSAPTK, peptide start residue: 653)”, the log2 fold change was 0.294. For the target “UniProt O09100 (peptide sequence: DGTGHYLCNACGLYHK, peptide start residue: 230)”, the log2 fold change was -0.361.

Take “UniProt O08579 (peptide sequence: IFEYETQRR, peptide start residue: 38)”: the log2 fold change turned out to be 0.868. With “UniProt O08576 (peptide sequence: GFWDYIR, peptide start residue: 92)” the figure was 0.224; with “UniProt B5X0E4 (peptide sequence: STTVQLLQR, peptide start residue: 433)”, -0.339. Take “UniProt G5E8B9 (peptide sequence: CGECGMVFPR, peptide start residue: 568)”: the log2 fold change was found to be 0.212.

As for “UniProt E9Q137 (peptide sequence: ELSTPERGEE, peptide start residue: 300)”, the log2 fold change is 0.158.

Regarding “UniProt F6ZDS4 (peptide sequence: KLLEEDVK, peptide start residue: 1400)”, the log2 fold change amounted to 0.528.

With “UniProt O35387 (peptide sequence: YPDSHQPR, peptide start residue: 133)”, the log2 fold change is -0.253.

As to “UniProt O08908 (peptide sequence: KINEWLGIK, peptide start residue: 584)”, the log2 fold change was 0.164. Next, “UniProt O09106 (peptide sequence: EKDPEEKK, peptide start residue: 450)”: 0.502. With “UniProt E9QMW4 (peptide sequence: KGPSSAIKK, peptide start residue: 570)” the figure was -0.0365; with “UniProt B8ZXI1 (peptide sequence: IKGLDQAK, peptide start residue: 310)”, -0.173; with “UniProt O08755 (peptide sequence: ITTELKR, peptide start residue: 301)”, -0.31. Regarding “UniProt E9PYL2 (peptide sequence: VGVHLLEPATR, peptide start residue: 816)”, the log2 fold change worked out at 0.549. With “UniProt F8VPZ5 (peptide sequence: QQCLGAASGVPTWTGHR, peptide start residue: 1293)” the figure was 0.313; with “UniProt D0QMC3 (peptide sequence: VEMPDYHV, peptide start residue: 531)”, 0.209. For the target “UniProt E9Q4Z2 (peptide sequence: QTTSDSAIPIR, peptide start residue: 1628)”, the log2 fold change was -0.399. With “UniProt E9PYI1 (peptide sequence: IHTGEKPYK, peptide start residue: 104)” the figure was 0.143; with “UniProt E9Q6P5 (peptide sequence: SECQWER, peptide start residue: 19)”, -0.402. “UniProt B7ZMP1 (peptide sequence: ELWDGPR, peptide start residue: 161)”: the log2 fold change was -0.206.

As to “UniProt G5E829 (peptide sequence: IDESSLTGESDHVKK, peptide start residue: 238)”, the log2 fold change is -0.296. Next, “UniProt O08580 (peptide sequence: CLPGHKEEEDGEGAGSGEQGSGK, peptide start residue: 46)”: 0.638. Regarding “UniProt D2EAC2 (peptide sequence: LGTDSFTSIK, peptide start residue: 827)”, the log2 fold change is 0.398. With “UniProt B2RXC1 (peptide sequence: FIPTSIFVKPQGR, peptide start residue: 1111)” the figure was -0.0792; with “UniProt O09053 (peptide sequence: VICGPTNTETR, peptide start residue: 292)”, -0.456. Next, “UniProt B2RX88 (peptide sequence: FMAEHLNEEQHK, peptide start residue: 1176)”: 0.33.

The values are drawn from the supplement of paper PMC12819154, “High-throughput peptide-centric local stability assay extends protein–ligand identification to membrane proteins, tissues and bacteria” (Nature Structural & Molecular Biology, 2025).
